{"source": "PubChem BioAssay AID1259261 – Sanger Institute, 2017", "test": "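siRNA screen across the kinome for kinases that are essential and partners synergising with drugs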 (primary screen)", "system": "HCC2998 human colorectal cancer cells", "reagent": "siRNA pool against human genes", "treatment": "anchor drugs BYL719 1 µM, cetuximab 5 µg/ml or trametinib 10 nM, each compared with DMSO vehicle", "measurement": "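Cell viability relative to non-targeting siRNA, averaged over replicates, with robust z-score for siRNA alone and synergy scores with each anchor drug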", "scale": "viability z-score, knock-down alone: higher = more viable cells than controls; viability fraction, knock-down alone: higher = more viable cells", "call rule": "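a knock-down is called essential if its robust z-score without drug is under -3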", "meaning of the calls": "active = essential; inactive = no change", "note": "The deposit covers 794 reagents; this is a random part of them. 10 of them (1.3%) count as active. 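Calls reflect knock-down alone without drug; synergy scores with BYL719, cetuximab or trametinib do not affect calls.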 Unmarked entries are inactive. Viability is capped at 1. Further read-outs or replicates are left out here. Not given: the amount of reagent, the time to read-out."}
The opening 2 records, ahead of the listing:
{"Target gene":"SOS2 (SOS Ras/Rho guanine nucleotide exchange factor 2)","viability z-score, knock-down alone":0.154,"viability fraction, knock-down alone":0.868}
{"Target gene":"PHKB (phosphorylase kinase regulatory subunit beta)","viability z-score, knock-down alone":-1.45,"viability fraction, knock-down alone":0.667}

The listing, from the first entry:
{"Target gene":"SOS2 (SOS Ras/Rho guanine nucleotide exchange factor 2)","viability z-score, knock-down alone":0.154,"viability fraction, knock-down alone":0.868}
{"Target gene":"PHKB (phosphorylase kinase regulatory subunit beta)","viability z-score, knock-down alone":-1.45,"viability fraction, knock-down alone":0.667}
{"Target gene":"WNK1 (WNK lysine deficient protein kinase 1)","viability z-score, knock-down alone":-0.715,"viability fraction, knock-down alone":0.759}
{"Target gene":"PRKAG3 (protein kinase AMP-activated non-catalytic subunit gamma 3)","viability z-score, knock-down alone":-0.624,"viability fraction, knock-down alone":0.771}
{"Target gene":"ITPKB (inositol-trisphosphate 3-kinase B)","viability z-score, knock-down alone":0.873,"viability fraction, knock-down alone":0.958}
{"Target gene":"ELF3 (E74 like ETS transcription factor 3)","viability z-score, knock-down alone":-1.4,"viability fraction, knock-down alone":0.673}
{"Target gene":"PRKCD (protein kinase C delta)","viability z-score, knock-down alone":-0.00524,"viability fraction, knock-down alone":0.848}
{"Target gene":"PAK6 (p21 (RAC1) activated kinase 6)","viability z-score, knock-down alone":1.21,"viability fraction, knock-down alone":1}
{"Target gene":"FCSK (fucose kinase)","viability z-score, knock-down alone":0.14,"viability fraction, knock-down alone":0.866}
{"Target gene":"CTNNB1 (catenin beta 1)","viability z-score, knock-down alone":-2.27,"viability fraction, knock-down alone":0.564}
{"Target gene":"RET (ret proto-oncogene)","viability z-score, knock-down alone":0.313,"viability fraction, knock-down alone":0.888}
{"Target gene":"AURKB (aurora kinase B)","viability z-score, knock-down alone":0.388,"viability fraction, knock-down alone":0.898}
{"Target gene":"RIPK1 (receptor interacting serine/threonine kinase 1)","viability z-score, knock-down alone":1.15,"viability fraction, knock-down alone":0.993}
{"Target gene":"PTK6 (protein tyrosine kinase 6)","viability z-score, knock-down alone":-0.144,"viability fraction, knock-down alone":0.831}
{"Target gene":"MYLK3 (myosin light chain kinase 3)","viability z-score, knock-down alone":0.896,"viability fraction, knock-down alone":0.961}
{"Target gene":"EPHB1 (EPH receptor B1)","viability z-score, knock-down alone":-0.213,"viability fraction, knock-down alone":0.822}
{"Target gene":"PIK3R4 (phosphoinositide-3-kinase regulatory subunit 4)","viability z-score, knock-down alone":-0.264,"viability fraction, knock-down alone":0.816}
{"Target gene":"EFNA4 (ephrin A4)","viability z-score, knock-down alone":0.206,"viability fraction, knock-down alone":0.875}
{"Target gene":"PIK3CG","viability z-score, knock-down alone":-0.551,"viability fraction, knock-down alone":0.78}
{"Target gene":"NME1 (NME/NM23 nucleoside diphosphate kinase 1)","viability z-score, knock-down alone":-2.42,"viability fraction, knock-down alone":0.545}
{"Target gene":"LCK (LCK proto-oncogene, Src family tyrosine kinase)","viability z-score, knock-down alone":0.643,"viability fraction, knock-down alone":0.929}
{"Target gene":"GRK1 (G protein-coupled receptor kinase 1)","viability z-score, knock-down alone":1.21,"viability fraction, knock-down alone":1}
{"Target gene":"FN1 (fibronectin 1)","viability z-score, knock-down alone":1.16,"viability fraction, knock-down alone":0.994}
{"Target gene":"ERN2 (endoplasmic reticulum to nucleus signaling 2)","viability z-score, knock-down alone":0.835,"viability fraction, knock-down alone":0.954}
{"Target gene":"GRK5 (G protein-coupled receptor kinase 5)","viability z-score, knock-down alone":1.21,"viability fraction, knock-down alone":1}
{"Target gene":"PIK3R5 (phosphoinositide-3-kinase regulatory subunit 5)","viability z-score, knock-down alone":0.0546,"viability fraction, knock-down alone":0.856}
{"Target gene":"NUCKS1","viability z-score, knock-down alone":0.889,"viability fraction, knock-down alone":0.96}
{"Target gene":"DCLK1 (doublecortin like kinase 1)","viability z-score, knock-down alone":-0.9,"viability fraction, knock-down alone":0.736}
